Record: PubChem BioAssay AID504808 (Drosophila RNAi Screening Center, 2011)
Screen: 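Genes whose loss lifts activity of an E2F-responsive reporter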 (primary screen). System: Drosophila S2 cells. Reagents: long dsRNA against Drosophila genes. Measurement: 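Dual luciferase plate measurements; E2F-specific signal taken as firefly over Renilla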. Reading the numbers: E2F firefly: higher = more E2F reporter activity; Renilla normaliser: higher = more normaliser reporter signal. Call rule: 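Called active if the normalised E2F reporter went up by over 50%; the cutoff is arbitrary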.
The screen tested about 21,000 reagents; this is an unselected part of those with a known target gene and a result. Of all reagents, 18 (0.084%) are marked active. 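Raw counts without plate normalisation, one of two replicates; the ratio scores behind the calls were not deposited.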 No sequences are given here. Not given: the amount of reagent, the time to read-out.

target gene | dsRNA | E2F firefly, rep 1 | Renilla normaliser, rep 1 | Call
CAH8 | DRSC15784 | 1.45e5 | 7214 | inactive
rdog | DRSC14431 | 1879 | 856 | inactive
st | DRSC11399 | 76001 | 3322 | inactive
14-3-3epsilon | DRSC16370 | 1.52e5 | 6612 | inactive
CG13081 | DRSC02185 | 1.10e5 | 4436 | inactive
Sol1 | DRSC15263 | 1.57e5 | 7094 | inactive
Sol1 | DRSC15271 | 1.48e5 | 6664 | inactive
Sol1 | DRSC15681 | 1.54e5 | 6853 | inactive
Ppn | DRSC15328 | 1.11e5 | 5668 | inactive
Su(var)3-9 | DRSC14484 | 1.59e5 | 7334 | inactive
Caf1-55 | DRSC16596 | 54178 | 5404 | inactive
CG13243 | DRSC01920 | 89026 | 3793 | inactive
papi | DRSC00693 | 81147 | 3677 | inactive
HmgD | DRSC04619 | 73854 | 3592 | inactive
CR42785 | DRSC04962 | 1.34e5 | 5244 | inactive
lola | DRSC05220 | 1.21e5 | 4373 | inactive
lola | DRSC05221 | 1.58e5 | 4959 | inactive
lola | DRSC05222 | 1.29e5 | 4334 | inactive
lola | DRSC05223 | 89827 | 3185 | inactive
lola | DRSC05224 | 1.33e5 | 4890 | inactive
lola | DRSC06738 | 2424 | 227 | inactive
lola | DRSC06739 | 1.49e5 | 5325 | inactive
lola | DRSC06740 | 2796 | 204 | inactive
lola | DRSC06741 | 1.40e5 | 4859 | inactive
lola | DRSC06742 | 1.37e5 | 4118 | inactive
lola | DRSC07646 | 2532 | 218 | inactive
lola | DRSC07647 | 1.54e5 | 4780 | inactive
CG12842 (retired record) | DRSC06188 | 1.49e5 | 4649 | inactive
CG31949 | DRSC00110 | 1.36e5 | 5732 | inactive
Adsl | DRSC15500 | 62986 | 3469 | inactive
nau | DRSC17011 | 1.02e5 | 5848 | inactive
Pi4KIIalpha | DRSC12322 | 71516 | 3489 | inactive
Pi4KIIalpha | DRSC12323 | 1.23e5 | 5150 | inactive
Usp2 | DRSC20590 | 76828 | 3023 | inactive
Usp2 | DRSC20632 | 1.35e5 | 4880 | inactive
Usp2 | DRSC20633 | 1.30e5 | 6646 | inactive
CG1273 | DRSC08291 | 93480 | 3892 | inactive
t-Grip91 | DRSC01506 | 1.30e5 | 6165 | inactive
CG11112 | DRSC06038 | 1.37e5 | 4850 | inactive
CG5757 | DRSC06951 | 66379 | 3435 | inactive
lgs | DRSC17152 | 1836 | 924 | inactive
beat-Ic | DRSC01524 | 1.25e5 | 6239 | inactive
beat-Ic | DRSC03491 | 1.02e5 | 4614 | inactive
Acadvl | DRSC07022 | 80820 | 3499 | inactive
jv | DRSC08831 | 1.16e5 | 5622 | inactive
jv | DRSC08832 | 1.35e5 | 4545 | inactive
Spec2 (retired record) | DRSC12258 | 1.27e5 | 6047 | inactive
CG6398 | DRSC19992 | 1.51e5 | 5549 | inactive
Tsr1 | DRSC11821 | 76525 | 3263 | inactive
CG6847 | DRSC19213 | 82449 | 2680 | inactive
CG6847 | DRSC20009 | 1.36e5 | 6575 | inactive
CG5026 | DRSC10470 | 66323 | 3225 | inactive
Slob (retired record) | DRSC03436 | 87161 | 4215 | inactive
Flad1 | DRSC19898 | 8153 | 816 | inactive
flr | DRSC09787 | 73577 | 3645 | inactive
Nemp | DRSC20206 | 1.64e5 | 5974 | inactive
Rab3-GEF | DRSC19954 | 2.26e5 | 6112 | inactive
Rab3-GEF | DRSC19955 | 2.26e5 | 5137 | inactive
Rab3-GEF | DRSC19956 | 1.25e5 | 4727 | inactive
Vha68-3 | DRSC02809 | 98106 | 4018 | inactive
cysu | DRSC15902 | 1.07e5 | 5975 | inactive
CG15376 (retired record) | DRSC18046 | 1.24e5 | 5195 | inactive
MTF-1 | DRSC08983 | 1.36e5 | 4520 | inactive
MTF-1 | DRSC11217 | 1.37e5 | 7672 | inactive
side-V | DRSC04188 | 1.08e5 | 4681 | inactive
side-V | DRSC04189 | 52957 | 4740 | inactive
Spt7 | DRSC19997 | 1.51e5 | 6775 | inactive
Cht9 | DRSC04079 | 74864 | 3125 | inactive
Dlip3 | DRSC07401 | 1.48e5 | 4772 | inactive
CG8389 | DRSC07158 | 76058 | 3397 | inactive
CG12479 | DRSC19459 | 1.59e5 | 6482 | inactive
CG1951 | DRSC15403 | 1793 | 968 | inactive
w | DRSC17233 | 88009 | 2969 | inactive
w | DRSC18850 | 1.20e5 | 6331 | inactive
CG41520 | DRSC21102 | 62273 | 3608 | inactive
CG41520 | DRSC21103 | 1.36e5 | 6687 | inactive
CG11362 | DRSC04106 | 1.09e5 | 4426 | inactive
CG7453 | DRSC20046 | 1.50e5 | 5816 | inactive
Rbp | DRSC15724 | 63526 | 23405 | inactive
Rbp | DRSC15726 | 1.01e5 | 4997 | inactive
ERp44 | DRSC20215 | 8398 | 856 | inactive
RnrS | DRSC07533 | 1635 | 172 | inactive
CG12010 | DRSC08218 | 98227 | 4348 | inactive
THADA | DRSC19675 | 1.62e5 | 6058 | inactive

5 of these entries in another layout:
{"target gene": "Ppn", "dsRNA": "DRSC15328", "E2F firefly, rep 1": 1.11e5, "Renilla normaliser, rep 1": 5668, "Call": "inactive"}
{"target gene": "Su(var)3-9", "dsRNA": "DRSC14484", "E2F firefly, rep 1": 1.59e5, "Renilla normaliser, rep 1": 7334, "Call": "inactive"}
{"target gene": "Caf1-55", "dsRNA": "DRSC16596", "E2F firefly, rep 1": 54178, "Renilla normaliser, rep 1": 5404, "Call": "inactive"}
{"target gene": "CG13243", "dsRNA": "DRSC01920", "E2F firefly, rep 1": 89026, "Renilla normaliser, rep 1": 3793, "Call": "inactive"}
{"target gene": "papi", "dsRNA": "DRSC00693", "E2F firefly, rep 1": 81147, "Renilla normaliser, rep 1": 3677, "Call": "inactive"}
